# Results of single-concentration screens

Sequences of proteins named here, by UniProt entry; tags and fusion partners are left off. Residues count along the entry.
UniProt A4I591, 1-473: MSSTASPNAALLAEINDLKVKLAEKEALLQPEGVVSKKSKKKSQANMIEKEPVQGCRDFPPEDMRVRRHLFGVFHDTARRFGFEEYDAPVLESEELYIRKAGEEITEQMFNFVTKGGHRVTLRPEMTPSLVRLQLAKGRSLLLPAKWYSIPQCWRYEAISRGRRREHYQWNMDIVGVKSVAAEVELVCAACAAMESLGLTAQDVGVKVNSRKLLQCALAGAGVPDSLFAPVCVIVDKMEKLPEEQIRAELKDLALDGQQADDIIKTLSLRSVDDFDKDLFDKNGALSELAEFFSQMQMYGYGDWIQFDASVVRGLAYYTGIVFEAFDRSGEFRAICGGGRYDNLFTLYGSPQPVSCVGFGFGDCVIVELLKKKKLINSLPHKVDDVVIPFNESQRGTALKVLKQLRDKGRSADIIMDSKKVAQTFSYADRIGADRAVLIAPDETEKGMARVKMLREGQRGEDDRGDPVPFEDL

Data taken from ChEMBL document CHEMBL3988442, “University of Dundee, Small-Polar-MMV Screening Library” (2021).

The filed quantity is “Percent Effect” (%).
The controls that fix the scale are not given in the record; negative values are as filed.
This is an unselected part of the compounds tested.
A dash means the value is not listed here; it may have been measured.

LiHisRS: 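Histidine-tRNA ligase, Leishmania infantum (UniProt A4I591). Enzyme assay of histidyl-tRNA synthetase; the read-out is not stated. Tested at 30 µM. The record gives no direction; compounds that gave an IC50 in retests scored well above the rest, so higher reads as stronger inhibition. The assay is labelled LdHisRS but filed under L. infantum. About 69,000 compounds were tested under these conditions; 0.6% (about 410) showed 50% or more at least once.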
Toxoplasma: 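Assay of Toxoplasma gondii numbers, read through their beta-galactosidase reporter with a colour substrate. Compounds at 10 µM. The record gives no direction; the compounds picked for IC50 retests had high values, so higher reads as fewer parasites. Size under these conditions: about 67,000 compounds, about 260 of them at 50% or above in at least one test.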

structure,LiHisRS,Toxoplasma
O=C(O)C(F)(F)F.[H][C@]12CCN(C(=O)NCc3cccnc3)C[C@@]1([H])OCCN(C(C)=O)C2,-,-4.124%
CN(Cc1ccccn1)C1CCCN(Cc2noc(C3CC3)n2)C1 (centres unmarked),18.42%,-6.033%
COc1ccc(OC)c(NC(=O)NCC(O)c2ccc(F)c(F)c2)c1 (centres unmarked),8.108%,4.781%
O=C(CO)N1CCN(S(=O)(=O)CCCF)CC1,21.13%,9.863%
CC1(C)OCC(CNC(=O)c2cnn(-c3cc(Cl)ccc3Cl)c2N)O1 (centres unmarked),11.43%,-0.2044%
COc1ccc(C[C@H]2CN(C(=O)c3cscn3)CC[C@@H]2OC)cc1,11.54%,-0.8506%
CCN(C(=O)CN1CCCC1c1cc(C)no1)c1ccccc1C (centres unmarked),8.889%,-3.97%
Cc1nccc([C@H]2C[C@@H]3CCN(S(=O)(=O)C4CC4)C[C@H]3O2)n1,11.11%,-
Nc1ccnc(-c2cc(NC3CCNCC3)nc3[nH]ccc23)c1,40.98%,23.64%
CCC(C)CS(=O)(=O)NC(=O)C1CCC1 (centres unmarked),-9.859%,0.9709%
Cc1nc(CN2CCc3cncnc3C2)oc1C,17.31%,-4.488%
O=C(NCCc1cccnc1)c1cn(CCN2CCNCC2)nn1,7.229%,-3.483%
Cc1nccn1CCCC(=O)N1CCC(Nc2cccnn2)CC1,14.29%,3.159%
CCc1cnc(CNC(=O)N2CCCC(C(=O)NC)C2)s1 (centres unmarked),24.68%,-3.78%
C1CCCN(c2nc(C3CC3)ns2)CC1,-5.769%,-0.4379%
Cc1ccc(CN2CCOC3(CCN(C(=O)N4CCCC4)CC3)C2)cc1.O=C(O)C(F)(F)F,-,-6.803%
Cc1nn(CCC(=O)NC(C(=O)O)c2c(C)n[nH]c2C)c(C)c1C (centres unmarked),20%,-12.36%
CCc1n[nH]c(C2CN(C(=O)c3nc(C)n4ccccc34)CCO2)n1 (centres unmarked),15.62%,0.4449%
O=C(C1CC1)N1CC2(CCN(CC3CC3)CC2)c2cc(F)ccc21.O=C(O)C(F)(F)F,-,4.061%
O=C(CC1CCN(c2ncnc3cccc(F)c23)CC1)N1CCCC1,11.67%,0.1129%
COCC1c2nnn(CC3CC3)c2CCN1C(=O)Cc1cccs1 (centres unmarked),15.09%,0.2658%
Cc1ccc(N2CC[C@H]3CO[C@H](CN(C)Cc4ccco4)[C@H]3C2)nn1,15.38%,-
Cc1cc(N2CCC(O)(CN(C)C(=O)CCN)CC2)c2cnccc2n1,12.08%,-7.358%
CC(=O)N1N=C(c2ccco2)OC1C(=O)N(CC(C)C)CC(C)C (centres unmarked),9.901%,-7.126%
c1ccc(OCCCN2CCOC(CNc3cccnn3)C2)cc1 (centres unmarked),7.692%,13.44%
COc1nccc(N2CC[C@@H](N3CCC(O)CC3)[C@H](O)C2)c1C#N,1.333%,-0.4824%
COc1ncc(C2(O)CCN(Cc3ccc(F)c(F)c3)CC2)c(OC)n1.Cl,-,5.947%
O=C(O)C(F)(F)F.O=C(O)C(F)(F)F.[H][C@@]12C[C@@H](C(=O)NC(C)C)C[C@@]1([H])N(Cc1ccccn1)CCO2,-,6.404%
CC(C)(C)CC(=O)N[C@@H]1CO[C@H](CNC(=O)c2ccncc2)[C@H]1O,13.51%,-3.694%
CCC(CC)C(=O)N1CCC2(C1)CN(c1ccccc1)C(=O)CN2C.O=C(O)C(F)(F)F (centres unmarked),-,-14.23%
CC(C)COCC1CN(C(=O)c2cscn2)Cc2ncn(C)c21 (centres unmarked),8.108%,-
Cc1nn(C)c(C)c1CC(=O)N1CCC(N(C)c2cccnn2)CC1,26.4%,-6.775%
CC(C)C(=O)N1CCN(Cc2cc(-c3ccncc3)nn2C)CC1,25%,22.36%
Cc1cnc(C(=O)N2CC[C@H]3[C@@H]2CCC(=O)N3c2cccnc2)cn1,17%,-
Cc1nn(CCC#N)c(C)c1CCC(=O)N(C)C.Cl,-,-25.35%
Cc1cc(NC(=O)NCC(O)c2ccc(F)c(F)c2)n(C)n1 (centres unmarked),12.84%,-4.272%
N#Cc1cc(N2CCC(S(N)(=O)=O)CC2)c2ccccc2n1,-6.452%,-50.89%
Cc1nc(C)c(C)c(N2C[C@@H](CN3CCCN(C)CC3)[C@@H](CO)C2)n1,13.33%,5.148%
COCCNC(=O)N1CCN(C(=O)c2nsc3ccc(C)cc23)CC1,0%,-30.01%
Cc1csc(CCCNC(=O)NC2CC(=O)N(C(C)(C)C)C2)n1 (centres unmarked),9.375%,13.43%
Cc1ncc(CN2CCC(n3cc(-c4ccc(F)cc4)nn3)CC2)cn1,14.29%,-4.045%
O=S(=O)(N1CCCC1)N(Cc1ccccc1)CC1CCCO1 (centres unmarked),3.297%,6.808%
Cc1nccn1-c1ccc(C(C)Nc2cnn(C)c(=O)c2Cl)cc1 (centres unmarked),27.5%,-23.81%
O=C(CCCc1ccccn1)NCC(O)c1ccccc1Cl (centres unmarked),12.9%,-8.802%
CC(CO)(NC(=O)Nc1nnc(C(F)F)s1)C1CC1 (centres unmarked),17.54%,-7.683%
Cc1nnc(C(C)N2CCN(Cc3ccc(C(F)(F)F)cc3)CC2)o1 (centres unmarked),3.571%,-15.34%
O=C(CN1CC(c2nc(-c3ccco3)no2)C1)NCc1ccc(F)cc1.O=C(O)C(=O)O,-,0.6203%
CC(C)(C)c1cn2nc(N3CCOC(Cn4cncn4)C3)sc2n1 (centres unmarked),2.128%,-13.16%
O=C(Cn1cnc2cc3c(cc21)OCCCO3)NC1CCCC1,5.714%,3.275%
Cc1cc2cc(C(=O)N3C[C@H](O)[C@]4(CCCO4)C3)ccc2o1,21.74%,-18.93%

Repeated from the top, 4 entries:

structure	LiHisRS	Toxoplasma
O=C(O)C(F)(F)F.[H][C@]12CCN(C(=O)NCc3cccnc3)C[C@@]1([H])OCCN(C(C)=O)C2	-	-4.124%
CN(Cc1ccccn1)C1CCCN(Cc2noc(C3CC3)n2)C1 (centres unmarked)	18.42%	-6.033%
COc1ccc(OC)c(NC(=O)NCC(O)c2ccc(F)c(F)c2)c1 (centres unmarked)	8.108%	4.781%
O=C(CO)N1CCN(S(=O)(=O)CCCF)CC1	21.13%	9.863%